# Library screen at single concentrations

Amino acid sequences for entries named in this document (tags omitted).
UniProt P9WPC5, whole entry: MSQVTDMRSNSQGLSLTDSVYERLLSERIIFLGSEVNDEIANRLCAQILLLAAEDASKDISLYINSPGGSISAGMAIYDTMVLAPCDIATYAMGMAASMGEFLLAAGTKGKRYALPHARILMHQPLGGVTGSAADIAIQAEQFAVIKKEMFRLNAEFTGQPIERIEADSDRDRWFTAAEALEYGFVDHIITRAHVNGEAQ
UniProt P9WPC3, whole entry partner: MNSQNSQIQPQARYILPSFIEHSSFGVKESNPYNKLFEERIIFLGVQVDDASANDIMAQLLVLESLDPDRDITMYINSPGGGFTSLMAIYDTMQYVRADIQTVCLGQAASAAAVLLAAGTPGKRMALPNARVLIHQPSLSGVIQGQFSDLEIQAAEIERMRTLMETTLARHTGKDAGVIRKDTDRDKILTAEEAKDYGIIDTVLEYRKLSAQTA
UniProt P9WFT3, whole entry: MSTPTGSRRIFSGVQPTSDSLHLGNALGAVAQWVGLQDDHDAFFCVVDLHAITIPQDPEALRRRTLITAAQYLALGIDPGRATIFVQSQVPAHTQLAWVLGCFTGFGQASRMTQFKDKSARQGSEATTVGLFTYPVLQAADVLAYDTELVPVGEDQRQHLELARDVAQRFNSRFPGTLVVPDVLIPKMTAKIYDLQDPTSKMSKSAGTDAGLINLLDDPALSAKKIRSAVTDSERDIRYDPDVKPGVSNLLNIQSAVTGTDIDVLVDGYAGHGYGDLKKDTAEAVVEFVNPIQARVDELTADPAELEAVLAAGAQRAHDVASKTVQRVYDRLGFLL
UniProt P9WNZ1, whole entry: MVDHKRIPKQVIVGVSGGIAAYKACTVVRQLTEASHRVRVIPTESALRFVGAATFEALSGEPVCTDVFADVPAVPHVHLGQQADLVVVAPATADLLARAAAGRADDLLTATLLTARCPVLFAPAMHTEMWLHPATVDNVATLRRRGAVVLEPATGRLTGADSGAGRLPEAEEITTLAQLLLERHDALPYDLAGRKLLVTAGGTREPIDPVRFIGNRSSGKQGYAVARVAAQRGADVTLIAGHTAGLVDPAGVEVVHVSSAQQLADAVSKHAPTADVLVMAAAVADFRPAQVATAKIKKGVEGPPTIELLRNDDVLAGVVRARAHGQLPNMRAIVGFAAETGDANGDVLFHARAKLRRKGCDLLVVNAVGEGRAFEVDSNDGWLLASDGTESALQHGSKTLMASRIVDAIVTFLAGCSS

Source: ChEMBL document CHEMBL3988442, “University of Dundee, Small-Polar-MMV Screening Library” (2021).

ClpP1P2: 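Protease assay of ClpP1P2, read by the AMC dye that it sets free. Target: ClpP1P2, Mycobacterium tuberculosis (UniProt P9WPC5 and UniProt P9WPC3). Compounds at 50 µM. Direction is inferred from only a few compounds that gave an IC50; most scored high, so higher reads as stronger inhibition. Most other retested compounds had strongly negative values. About 69,000 compounds were tested under these conditions; 0.015% (about 10) showed 50% or more at least once.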
Toxoplasma: 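Assay of Toxoplasma gondii numbers, read through their beta-galactosidase reporter with a colour substrate. Concentration: 10 µM. Higher reads as fewer parasites (inferred from which compounds were picked for retests). About 67,000 compounds were tested under these conditions; 0.38% (about 260) showed 50% or more at least once.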
MtTrpRS: 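Enzyme assay of tryptophanyl-tRNA synthetase; the read-out is not stated. Target: Tryptophan-tRNA ligase, Mycobacterium tuberculosis (UniProt P9WFT3). Tested at 10 µM. Higher most likely means stronger inhibition; the record gives no direction and few retests gave an IC50. Size under these conditions: about 65,000 compounds, about 64 of them at 50% or above in at least one test.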
CoaBC: 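Enzyme assay of CoaBC with a phosphate dye (Biomol Green) read at 650 nm. Target: Coenzyme A biosynthesis protein CoaBC, Mycobacterium tuberculosis (UniProt P9WNZ1). Concentration: 30 µM. Direction is inferred from only a few compounds that gave an IC50; most scored high, so higher reads as stronger inhibition. Most strong results did not repeat in a second test. Of about 67,000 compounds tested this way, about 40 (0.06%) reached 50% or more in at least one test.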

Values are the deposited “Percent Effect”, in %. The record does not define 0% and 100%; most values in the screen are far below 50% and negative numbers occur (in some assays of this library far below -100). Compounds were drawn at random from those tested, without regard to their results.

With Cc1ccc2c(c1)[C@@H](CC(=O)N(C)C)CCO2 the screen gave ClpP1P2: 9.521%; Toxoplasma: -1.149%; CoaBC: 1.084%. With Cc1csc(-c2cccc(NC(=O)NCC(C)(C)C(N)=O)c2)n1 the screen gave ClpP1P2: -3.486%; Toxoplasma: 12.59%; MtTrpRS: -2.528%; CoaBC: -0.4545%. Result for [H][C@]12CN(C(=O)c3ccno3)CCN1C(=O)N(Cc1ccc(OC)cc1)C2 was Toxoplasma: 13.62%. Cc1ccc(C(CNCc2ccc(C#N)cc2)N2CCOCC2)s1 (stereo not given) gave ClpP1P2: 0.8598%; Toxoplasma: -0.05359%; MtTrpRS: 8.767%; CoaBC: -0.7937%.

Result for CS(=O)(=O)c1cccc(S(=O)(=O)NC(=O)CC2CCCCC2)c1 was ClpP1P2: 1.132%; Toxoplasma: 3.991%; MtTrpRS: 6.963%. For CC(=O)N[C@H]1CCN2C(=O)[C@@H](Cc3c[nH]c4ccccc34)NC(=O)[C@H]12 the result was ClpP1P2: 6.656%; MtTrpRS: 2.2%; CoaBC: -2.87%. With CCOc1cc2c(cc1CN1CCC3(CCCNC3=O)C1)CCC2 (stereo not given) the screen gave ClpP1P2: -17.15%; Toxoplasma: 10.32%; MtTrpRS: 6.108%; CoaBC: 8.889%. CN(C(=O)Cc1ccc(NC(=O)NC2CC2)cc1)c1ccccc1 gave ClpP1P2: -12.59%; Toxoplasma: 0.8979%; MtTrpRS: 1.649%; CoaBC: 16.63%.

For Cc1noc([C@@H]2C[C@H]3OCC[C@H]3N(S(C)(=O)=O)C2)n1 the result was ClpP1P2: -7.03%; MtTrpRS: 3.372%; CoaBC: 2.796%. Cc1ncc(CN2Cc3ccccc3O[C@]3(CC[C@H](CO)CC3)C2)cn1.Cl gave Toxoplasma: 0.9609%. Result for CSc1ccsc1C(=O)NC(C)c1ccc2c(c1)CCC(=O)N2 (stereo not given) was ClpP1P2: 6.013%; Toxoplasma: 0.3371%; MtTrpRS: -3.818%. With O=C(O)C(F)(F)F.O=C(O)C(F)(F)F.[H][C@@]12COC[C@]1(COCc1ccncc1)CN(Cc1cccc(F)c1)C2 the screen gave Toxoplasma: -39.24%.

For Cc1ncncc1C(=O)N1CCCC(Cc2nccs2)C1 (stereo not given) the result was ClpP1P2: 13.18%; Toxoplasma: 21.65%; CoaBC: 3.012%. For CC1(Cc2ccc(F)cc2)Cc2cc(C(=O)NCCO)ccc2O1 (stereo not given) the result was ClpP1P2: 12.75%; Toxoplasma: 20%; MtTrpRS: -1.302%; CoaBC: -3.828%. With CC(C)(O)CN1CCN(C(=O)c2ccn(-c3cccc(F)c3)n2)CC1 the screen gave ClpP1P2: -3.712%; Toxoplasma: 1.623%; MtTrpRS: -2.493%; CoaBC: -1.775%. For Cc1cccc(=O)n1CCCNc1nc(N(C)C)nc2c1CCNC2 the result was ClpP1P2: 20.48%; Toxoplasma: 7.697%; MtTrpRS: 11%; CoaBC: -8.961%.

For Cc1cccc(CN2C(=O)CO[C@@H]3CN(C4CCOCC4)C[C@H]32)c1 the result was ClpP1P2: -8.981%; MtTrpRS: -1.355%; CoaBC: 6.3%. With [H][C@]12CCN(C(=O)Cc3ccccc3)CC[C@@]1([H])S(=O)(=O)NC2 the screen gave Toxoplasma: 13.17%. O=C(c1cccc(-c2ccc(F)cc2)c1)N1CCC2(CC1)[C@H](O)C[C@@H]2O read ClpP1P2: 2.713%; Toxoplasma: -4.918%; MtTrpRS: -2.899%; CoaBC: -1.082%. Cc1cn2nc(N3CCCC3C(=O)N3CCOCC3)sc2n1 (stereo not given) read ClpP1P2: -12.74%; Toxoplasma: 9.282%; MtTrpRS: 2.558%; CoaBC: 2.195%.

With CCn1c(=O)n(CC)c2cc(S(N)(=O)=O)ccc21 the screen gave ClpP1P2: 6.479%; Toxoplasma: 4.806%; MtTrpRS: 4.078%; CoaBC: 1.928%. With O=C(NCc1nnc2ccccn12)N1CCc2sccc2C1 the screen gave ClpP1P2: -1.702%; Toxoplasma: -4.106%; MtTrpRS: 2.632%; CoaBC: 3.394%.

3 of the entries, repeated:

* CSc1ccsc1C(=O)NC(C)c1ccc2c(c1)CCC(=O)N2 (stereo not given) : ClpP1P2: 6.013%; Toxoplasma: 0.3371%; MtTrpRS: -3.818%
* O=C(O)C(F)(F)F.O=C(O)C(F)(F)F.[H][C@@]12COC[C@]1(COCc1ccncc1)CN(Cc1cccc(F)c1)C2 : Toxoplasma: -39.24%
* O=C(NCc1nnc2ccccn12)N1CCc2sccc2C1 : ClpP1P2: -1.702%; Toxoplasma: -4.106%; MtTrpRS: 2.632%; CoaBC: 3.394%